{
  "source": "patent US20060003924A1",
  "about": "“Sulfation-independent L-selectin or E-selectin ligand (HCELL) and therapeutics thereof” (priority 1994, published 2006)",
  "note": "Some entries share one result that the patent states for a list of compounds.",
  "data": [
    {"test_system": "KG1a", "assay": "KG1a cell viability by trypan blue exclusion", "conditions": "KG1a after the treatment", "units": {"Cell viability (trypan blue exclusion)": "%"}, "values": [
      {"molecule": "Tunicamycin", "Cell viability (trypan blue exclusion)": "> 98"},
      {"molecule": "C[C@@H]1C[C@@H]([C@H](O)CC2CC(=O)NC(=O)C2)C(=O)[C@@H](C)C1", "note": "[Cycloheximide]", "Cell viability (trypan blue exclusion)": "> 98"},
      {"molecule": "O[C@H]1[C@H]2[C@H](O)CCCN2C[C@H]1O", "note": "[Swainsonine]", "Cell viability (trypan blue exclusion)": "> 98"}
    ]}
  ]
}
